The M2OR odorant receptor database
Numbering of substitutions follows the chain as printed. Only a part is listed here, and it is no random draw. Calls are pooled over several reports, among them a noisy single-well screen. The list shows a part of the results. Some of the results follow.

Chains of the proteins cited; added tags and fusions are not shown. Chains listed by the source or under a name are the forms on record and can include a tag or linker.
OR2M7, as listed by the source: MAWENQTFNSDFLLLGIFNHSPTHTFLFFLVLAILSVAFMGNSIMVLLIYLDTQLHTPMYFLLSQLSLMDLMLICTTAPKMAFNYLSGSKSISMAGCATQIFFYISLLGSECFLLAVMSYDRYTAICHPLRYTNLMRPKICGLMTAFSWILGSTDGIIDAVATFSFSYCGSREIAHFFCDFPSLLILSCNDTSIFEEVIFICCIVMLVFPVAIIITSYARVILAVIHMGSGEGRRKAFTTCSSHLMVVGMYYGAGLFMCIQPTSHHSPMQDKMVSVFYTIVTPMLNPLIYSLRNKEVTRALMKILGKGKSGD
OR2W1, as listed by the source: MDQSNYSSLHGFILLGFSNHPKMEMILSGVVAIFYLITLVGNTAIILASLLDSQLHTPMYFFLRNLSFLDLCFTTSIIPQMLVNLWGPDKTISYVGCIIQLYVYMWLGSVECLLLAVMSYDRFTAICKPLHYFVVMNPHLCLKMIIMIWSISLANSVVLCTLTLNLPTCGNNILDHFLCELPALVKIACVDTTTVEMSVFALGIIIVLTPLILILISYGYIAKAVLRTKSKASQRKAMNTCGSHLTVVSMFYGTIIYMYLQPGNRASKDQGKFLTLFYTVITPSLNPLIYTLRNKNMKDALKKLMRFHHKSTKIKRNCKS

Columns and labels:
Settings in all cases: stereoisomer not certain
[1] = target: T1, OR2M4 (Homo sapiens) (UniProt Q96R27)
T1 sequence (whole entry): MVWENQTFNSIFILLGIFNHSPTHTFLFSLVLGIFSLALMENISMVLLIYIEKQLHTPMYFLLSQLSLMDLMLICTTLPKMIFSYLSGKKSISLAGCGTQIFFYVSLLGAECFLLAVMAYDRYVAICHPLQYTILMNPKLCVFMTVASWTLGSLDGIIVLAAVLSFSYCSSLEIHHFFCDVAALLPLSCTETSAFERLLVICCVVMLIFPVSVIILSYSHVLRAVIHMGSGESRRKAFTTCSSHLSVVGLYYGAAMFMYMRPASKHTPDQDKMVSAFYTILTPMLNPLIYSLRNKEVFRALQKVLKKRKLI
Procedure, shortened: (§1)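 Transient luciferase assays in mammalian cell lines were common, though methods varied by source. The values come from published papers and their supplementary material, with extra details from the original authors when needed. Responsive refers to a measured signal the original authors judged statistically different from baseline, and non-responsive (inactive) to the remainder.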

[2] = target: T2, OR2M7 (Homo sapiens) (UniProt Q8NG81)
T2 sequence (whole entry): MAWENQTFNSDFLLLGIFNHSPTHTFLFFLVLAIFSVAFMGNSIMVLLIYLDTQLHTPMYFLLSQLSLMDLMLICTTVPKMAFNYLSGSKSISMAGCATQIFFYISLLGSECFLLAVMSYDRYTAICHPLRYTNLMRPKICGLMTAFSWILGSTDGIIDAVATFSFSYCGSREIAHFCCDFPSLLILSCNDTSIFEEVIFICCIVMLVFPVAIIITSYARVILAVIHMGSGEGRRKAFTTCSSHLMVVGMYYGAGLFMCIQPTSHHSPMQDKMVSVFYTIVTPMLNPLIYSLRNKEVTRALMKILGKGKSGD
Procedure, shortened: as §1

[3] = test system: T3, OR2M7
T3 sequence (whole entry): T2 sequence (whole entry) with F35L, V78A, C178F
Procedure, shortened: as §1

[4] = test system: T4, OR2M7; remark: listed apart in the source
T4 sequence (whole entry): T2 sequence (whole entry) with F35L, V78A, C178F, D191N
Procedure, shortened: as §1

[5] = test system: T5, OR2S1
T5 sequence (whole entry): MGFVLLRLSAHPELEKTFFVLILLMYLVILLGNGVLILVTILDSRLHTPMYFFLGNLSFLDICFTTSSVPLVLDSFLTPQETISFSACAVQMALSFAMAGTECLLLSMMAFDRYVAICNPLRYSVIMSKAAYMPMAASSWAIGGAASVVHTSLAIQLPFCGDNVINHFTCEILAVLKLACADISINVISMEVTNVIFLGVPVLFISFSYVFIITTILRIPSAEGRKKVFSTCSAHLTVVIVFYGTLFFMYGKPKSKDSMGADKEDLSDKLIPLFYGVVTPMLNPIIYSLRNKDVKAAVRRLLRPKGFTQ
Procedure, shortened: as §1

[6] = target: T6, OR2T10 (Homo sapiens) (UniProt Q8NGZ9)
T6 sequence (whole entry): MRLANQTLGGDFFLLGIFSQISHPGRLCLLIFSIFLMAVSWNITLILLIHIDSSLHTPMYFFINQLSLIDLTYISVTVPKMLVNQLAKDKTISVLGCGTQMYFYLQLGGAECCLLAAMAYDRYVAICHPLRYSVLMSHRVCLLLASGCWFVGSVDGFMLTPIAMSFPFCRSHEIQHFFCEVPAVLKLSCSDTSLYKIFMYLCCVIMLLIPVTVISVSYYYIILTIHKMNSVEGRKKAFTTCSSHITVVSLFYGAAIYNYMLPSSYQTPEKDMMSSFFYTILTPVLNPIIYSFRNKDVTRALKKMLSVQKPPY
Procedure, shortened: as §1

[7] = test system: T7, OR2T1
T7 sequence (whole entry): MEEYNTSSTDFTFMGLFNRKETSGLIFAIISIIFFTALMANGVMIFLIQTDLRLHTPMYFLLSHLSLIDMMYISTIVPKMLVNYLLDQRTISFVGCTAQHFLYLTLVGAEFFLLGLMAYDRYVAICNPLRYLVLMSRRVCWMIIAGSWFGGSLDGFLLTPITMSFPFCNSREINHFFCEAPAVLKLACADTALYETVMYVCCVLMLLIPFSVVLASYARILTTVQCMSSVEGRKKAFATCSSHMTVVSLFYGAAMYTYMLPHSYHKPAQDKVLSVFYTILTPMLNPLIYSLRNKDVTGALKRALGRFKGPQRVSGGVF
Procedure, shortened: as §1

[8] = test system: T8, OR2T2
T8 sequence (whole entry): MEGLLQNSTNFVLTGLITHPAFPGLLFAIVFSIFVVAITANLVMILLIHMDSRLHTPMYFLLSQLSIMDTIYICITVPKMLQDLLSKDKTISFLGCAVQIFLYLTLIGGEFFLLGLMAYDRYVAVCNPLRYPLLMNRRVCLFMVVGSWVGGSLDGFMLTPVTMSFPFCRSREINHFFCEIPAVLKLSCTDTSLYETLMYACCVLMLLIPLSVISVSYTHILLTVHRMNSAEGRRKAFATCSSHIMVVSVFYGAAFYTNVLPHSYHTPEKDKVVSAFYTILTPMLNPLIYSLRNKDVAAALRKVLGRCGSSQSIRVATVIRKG
Procedure, shortened: as §1

[9] = target: T9, OR2T3 (Homo sapiens) (UniProt Q8NH03)
T9 sequence (whole entry): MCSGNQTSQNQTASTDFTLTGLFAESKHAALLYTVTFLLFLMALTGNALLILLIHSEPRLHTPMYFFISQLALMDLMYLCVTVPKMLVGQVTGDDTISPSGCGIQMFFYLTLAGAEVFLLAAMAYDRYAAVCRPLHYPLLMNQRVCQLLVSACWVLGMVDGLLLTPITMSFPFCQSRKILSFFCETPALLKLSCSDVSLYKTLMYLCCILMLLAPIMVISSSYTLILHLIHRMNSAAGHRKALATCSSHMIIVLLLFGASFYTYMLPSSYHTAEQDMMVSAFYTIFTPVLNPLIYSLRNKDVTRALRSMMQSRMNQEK
Procedure, shortened: as §1

[10] = test system: T10, OR2T4
T10 sequence (whole entry): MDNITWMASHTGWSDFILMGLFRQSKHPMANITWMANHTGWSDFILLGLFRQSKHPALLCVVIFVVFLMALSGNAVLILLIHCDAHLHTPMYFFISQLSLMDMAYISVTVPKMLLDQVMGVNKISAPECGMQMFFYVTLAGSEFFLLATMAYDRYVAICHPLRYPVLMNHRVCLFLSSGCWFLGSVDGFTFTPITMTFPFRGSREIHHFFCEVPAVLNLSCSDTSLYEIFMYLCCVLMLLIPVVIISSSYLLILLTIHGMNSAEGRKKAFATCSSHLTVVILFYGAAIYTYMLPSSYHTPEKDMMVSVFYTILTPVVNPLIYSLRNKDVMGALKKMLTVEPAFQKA
Procedure, shortened: as §1

[11] = test system: T11, OR2T5
T11 sequence (whole entry): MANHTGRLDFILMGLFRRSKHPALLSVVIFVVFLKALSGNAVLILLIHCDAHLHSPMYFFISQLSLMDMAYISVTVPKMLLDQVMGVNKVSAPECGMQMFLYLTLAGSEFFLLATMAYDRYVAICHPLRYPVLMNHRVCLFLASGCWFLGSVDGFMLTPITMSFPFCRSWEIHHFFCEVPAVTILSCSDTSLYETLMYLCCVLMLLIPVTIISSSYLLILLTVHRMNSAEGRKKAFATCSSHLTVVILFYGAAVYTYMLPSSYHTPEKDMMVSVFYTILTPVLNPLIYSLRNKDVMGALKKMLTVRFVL
Procedure, shortened: as §1

[12] = test system: T12, OR2T6
T12 sequence (whole entry): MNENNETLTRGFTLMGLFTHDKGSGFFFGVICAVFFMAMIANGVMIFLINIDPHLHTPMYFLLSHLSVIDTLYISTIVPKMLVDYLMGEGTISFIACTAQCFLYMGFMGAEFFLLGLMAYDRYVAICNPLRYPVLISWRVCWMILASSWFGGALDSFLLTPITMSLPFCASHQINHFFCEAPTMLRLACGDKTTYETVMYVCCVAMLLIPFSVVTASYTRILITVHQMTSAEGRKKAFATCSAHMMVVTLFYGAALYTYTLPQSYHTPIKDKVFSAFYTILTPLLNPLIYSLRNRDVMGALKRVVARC
Procedure, shortened: as §1

[13] = test system: T13, OR2T8
T13 sequence (whole entry): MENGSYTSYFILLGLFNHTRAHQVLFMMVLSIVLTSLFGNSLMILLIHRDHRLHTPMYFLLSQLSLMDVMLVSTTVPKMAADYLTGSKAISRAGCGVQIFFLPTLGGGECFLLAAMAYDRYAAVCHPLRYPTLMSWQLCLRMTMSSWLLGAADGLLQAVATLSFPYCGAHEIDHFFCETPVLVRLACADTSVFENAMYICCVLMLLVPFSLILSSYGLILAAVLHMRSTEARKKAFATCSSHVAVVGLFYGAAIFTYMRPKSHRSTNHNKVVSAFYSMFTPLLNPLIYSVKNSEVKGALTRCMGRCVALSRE
Procedure, shortened: as §1

[14] = test system: T14, OR2V1
T14 sequence (whole entry): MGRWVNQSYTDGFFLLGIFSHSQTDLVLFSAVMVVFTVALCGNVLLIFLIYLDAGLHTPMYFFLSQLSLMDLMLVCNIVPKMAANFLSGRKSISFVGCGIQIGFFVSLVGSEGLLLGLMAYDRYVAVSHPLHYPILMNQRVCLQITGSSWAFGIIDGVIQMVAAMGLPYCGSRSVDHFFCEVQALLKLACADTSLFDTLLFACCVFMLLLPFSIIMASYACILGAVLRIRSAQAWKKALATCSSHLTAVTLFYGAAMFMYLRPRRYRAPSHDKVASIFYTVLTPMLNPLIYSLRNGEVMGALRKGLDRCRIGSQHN
Procedure, shortened: as §1

[15] = test system: T15, OR2V2
T15 sequence (whole entry): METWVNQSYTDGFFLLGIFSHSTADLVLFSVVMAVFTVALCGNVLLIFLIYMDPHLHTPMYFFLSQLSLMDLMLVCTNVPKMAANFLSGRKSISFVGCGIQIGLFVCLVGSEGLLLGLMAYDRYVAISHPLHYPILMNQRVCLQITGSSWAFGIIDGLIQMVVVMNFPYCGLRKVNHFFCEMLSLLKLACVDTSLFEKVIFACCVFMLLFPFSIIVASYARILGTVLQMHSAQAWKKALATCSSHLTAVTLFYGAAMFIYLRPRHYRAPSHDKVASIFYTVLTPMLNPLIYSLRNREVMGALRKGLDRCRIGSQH
Procedure, shortened: as §1

[16] = target: T16, OR2W1 (Homo sapiens) (UniProt Q9Y3N9)
T16 sequence (whole entry): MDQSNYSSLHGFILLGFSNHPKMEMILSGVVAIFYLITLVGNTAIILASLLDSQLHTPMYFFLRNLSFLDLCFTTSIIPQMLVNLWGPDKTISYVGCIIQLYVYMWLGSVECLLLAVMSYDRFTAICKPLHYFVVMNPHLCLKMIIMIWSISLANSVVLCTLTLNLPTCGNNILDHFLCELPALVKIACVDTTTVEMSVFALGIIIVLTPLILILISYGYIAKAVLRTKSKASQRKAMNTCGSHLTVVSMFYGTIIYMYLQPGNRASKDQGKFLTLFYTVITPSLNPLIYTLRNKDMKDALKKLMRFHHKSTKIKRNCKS
Procedure, shortened: as §1

[17] = test system: T17, OR2W1
T17 sequence (whole entry): T16 sequence (whole entry) with D296N
Procedure, shortened: as §1

[18] = test system: OR2W1; remark: listed apart in the source
Procedure, shortened: as §1

[19] = test system: T18, OR2W3
T18 sequence (whole entry): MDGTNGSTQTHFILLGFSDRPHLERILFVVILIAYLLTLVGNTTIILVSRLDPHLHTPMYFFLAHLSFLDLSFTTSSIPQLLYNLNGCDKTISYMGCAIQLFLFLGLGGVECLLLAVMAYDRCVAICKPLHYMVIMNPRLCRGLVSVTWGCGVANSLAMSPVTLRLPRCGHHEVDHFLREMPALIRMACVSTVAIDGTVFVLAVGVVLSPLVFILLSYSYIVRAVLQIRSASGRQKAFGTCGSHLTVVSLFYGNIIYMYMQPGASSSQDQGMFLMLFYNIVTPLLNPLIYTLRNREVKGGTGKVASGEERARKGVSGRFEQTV
Procedure, shortened: as §1

[20] = target: T19, OR2W5P (Homo sapiens) (UniProt A6NFC9)
T19 sequence (whole entry): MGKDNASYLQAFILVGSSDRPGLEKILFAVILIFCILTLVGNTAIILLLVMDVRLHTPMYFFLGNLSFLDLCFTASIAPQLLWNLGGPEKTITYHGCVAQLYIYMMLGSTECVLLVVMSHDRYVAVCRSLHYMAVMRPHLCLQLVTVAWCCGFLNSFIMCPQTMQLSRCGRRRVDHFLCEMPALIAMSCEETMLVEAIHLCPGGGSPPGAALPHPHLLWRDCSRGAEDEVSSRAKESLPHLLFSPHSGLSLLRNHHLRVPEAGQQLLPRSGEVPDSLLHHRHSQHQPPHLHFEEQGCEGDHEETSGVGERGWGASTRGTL
Procedure, shortened: as §1
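Also: active if original authors judged signal statistically different from baseline.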

Structure (SMILES)	odorant receptor agonist call [1]	odorant receptor agonist call [2]	odorant receptor agonist call [3]	odorant receptor agonist call [4]	odorant receptor agonist call [5]	odorant receptor agonist call [6]	odorant receptor agonist call [7]	odorant receptor agonist call [8]	odorant receptor agonist call [9]	odorant receptor agonist call [10]	odorant receptor agonist call [11]	odorant receptor agonist call [12]	odorant receptor agonist call [13]	odorant receptor agonist call [14]	odorant receptor agonist call [15]	odorant receptor agonist call [16]	odorant receptor agonist call [17]	odorant receptor agonist call [18]	odorant receptor agonist call [19]	odorant receptor agonist call [20]
CCCCOC(C)=O	inactive	inactive	inactive	inactive	inactive	inactive	inactive	inactive	inactive	inactive	inactive	inactive	inactive	inactive	inactive	active	active	active	inactive	inactive
CCC(C)=O	inactive	inactive	inactive	inactive	inactive	inactive	inactive	inactive	inactive	inactive	inactive	inactive	inactive	inactive	inactive	active	inactive	–	inactive	inactive
CS	inactive	inactive	inactive	inactive	inactive	inactive	inactive	active	inactive	inactive	inactive	inactive	inactive	inactive	inactive	inactive	inactive	–	inactive	inactive
CCOc1cc(C=O)ccc1O	–	–	–	–	–	–	–	–	–	–	–	–	–	–	–	inactive	–	–	–	–
